Measured values taken from publication PMC12207533, “Structure-guided design of a methyltransferase-like 3 (METTL3) proteolysis targeting chimera (PROTAC) incorporating an indole–nicotinamide chemotype” (RSC Medicinal Chemistry, 2025).

Tested on: VCB (VHL, elongin B, elongin C)
Assay: FP displacement assay with VCB (binary and ternary KD, cooperativity)
Assay type: binding
Conditions: with and without METTL3 (12 μM)
Procedure: Fluorescence polarization (FP) displacement assays with METTL3/14 (ref. [36]) and VCB[38–40] were performed following previous protocols with slight adaptations. All experiments were conducted in black Greiner 96-well half-area plates using a Tecan Spark 10 M plate reader, equipped with polarization filters coupled to a monochromator setup (λex = 480 nm, λem = 530 nm). Reaction mixtures for METTL3/14 contained 300 nM recombinant enzyme, 20 nM FAM-labelled displacement tracer (STM-FL[36]), and the test compounds at varying concentrations in 25 mM Tris HCl, pH 7.5, 100 mM NaCl, and 10% DMSO. For VCB, the mixtures contained 40 nM recombinant enzyme, 10 nM FAM-labelled probe (FAM-DEALAHyp[…], Tocris Bioscience), and the tested compounds, at varying concentrations, in 50 mM Tris, pH 7.5, 200 mM NaCl, 2 mM DTT, and 10% DMSO. […] All measurements were performed at least as technical triplicates. Polarization values (mP) were determined from polarization-specific parallel and orthogonal fluorescence intensities using the Tecan in-built calculation routine. Using GraphPad Prism 8.0.1, the FP values were normalized, and KD values were calculated using a 4-parameter Hill equation: y(% probe bound) = bottom + ([ligand]slope) × (top–bottom)/([ligand]slope + KD slope).

| Compound | cooperativity factor α (KD binary/KD ternary) |
| --- | --- |
| Cc1ncsc1-c1ccc([C@H](C)NC(=O)[C@@H]2C[C@@H](O)CN2C(=O)[C@@H](NC(=O)CCC#Cc2ccc(CNc3cc(N4CCC5(CC4)CN(c4cc(F)c(CN6CCC(C)(C)CC6)cc4F)CC(=O)N5)ncn3)cc2)C(C)(C)C)cc1 [WD6305] | 23 |
| Cc1ncsc1-c1ccc(CNC(=O)[C@@H]2C[C@@H](O)CN2C(=O)[C@@H](NC(=O)CCc2ccc(-c3ccc(COc4cncc(C(=O)NCc5ccc6cc(CN7CCC(C)(C)CC7)[nH]c6c5)c4)cc3)cc2)C(C)(C)C)cc1 [compound 41] | 4.5 |
